Read-outs that look alike come from different tables or passages of the source. At least one peptide structure holds a part that was inferred or is arguable (an end, a ring closure or a residue). Where a SMILES comes first, the peptide text is derived from it.
Key:
[1] = system: collagen-induced platelet aggregation; assay: Collagen-induced platelet aggregation in a whole blood aggregometer; format: cell-based; details: for IC50: read-out: IC50 (concentration inhibiting platelet aggregation by 50%)
[2] = system: ADP-induced platelet aggregation; assay: ADP-induced platelet aggregation in a whole blood aggregometer; format: cell-based; details: for IC50: read-out: IC50 (concentration inhibiting platelet aggregation by 50%)

Row | Structure (SMILES) | IC50 ([1]; Donor 1, whole blood) | IC50 ([1]; Donor 2, whole blood) | IC50 ([2]; Donor 1, whole blood) | IC50 ([2]; Donor 2, whole blood) | Fold increase in inhibitory potency compared with P-1 ([1]; Donor 1) | Fold increase in inhibitory potency compared with P-1 ([1]; Donor 2) | Fold increase in inhibitory potency compared with P-1 ([2]; Donor 1) | Fold increase in inhibitory potency compared with P-1 ([2]; Donor 2)
1 | CC[C@H](C)[C@H](N)C(=O)N[C@@H](C)C(=O)N[C@@H](CCCNC(=N)N)C(=O)NCC(=O)N[C@@H](CC(=O)O)C(=O)N[C@@H](CCSC)C(=O)N[C@@H](CC(N)=O)C(=O)N[C@@H](C)C(=O)O [Peptide P-1, Ile-Ala-Arg-Gly-Asp-Met-Asn-Ala] (H-IARGDMNA-OH) | 84.5 µM | 67.3 µM | 27.3 µM | 22.5 µM | – | – | – | –
2 | CC[C@H](C)[C@H](N)C(=O)N[C@@H](C)C(=O)N[C@@H](CCCNC(=N)N)C(=O)NCC(=O)N[C@@H](CC(=O)O)C(=O)N[C@@H](CCSC)C(=O)N1CCC[C@H]1C(=O)N[C@@H](C)C(=O)O [Peptide P-3, Ile-Ala-Arg-Gly-Asp-Met-Pro-Ala] (H-IARGDMPA-OH) | 37.5 µM | 27.6 µM | 21 µM | 16.7 µM | 2.25 fold | 2.44 fold | 1.30 fold | 1.34 fold
3 | CC[C@H](C)[C@H](N)C(=O)N1CCC[C@H]1C(=O)N[C@@H](CCCNC(=N)N)C(=O)NCC(=O)N[C@@H](CC(=O)O)C(=O)N[C@@H](CCSC)C(=O)N1CCC[C@H]1C(=O)N[C@@H](C)C(=O)O [Peptide P-4, Ile-Pro-Arg-Gly-Asp-Met-Pro-Ala] (H-IPRGDMPA-OH) | 6.4 µM | 8.4 µM | 4 µM | 2.2 µM | 13.10 fold | 8.01 fold | 6.77 fold | 10.27 fold
4 | CC[C@H](C)[C@H](N)C(=O)N1CCC[C@H]1C(=O)N[C@@H](CCCNC(=N)N)C(=O)NCC(=O)N[C@@H](CC(=O)O)C(=O)N[C@@H](CCSC)C(=O)N[C@@H](CC(N)=O)C(=O)N[C@@H](C)C(=O)O [Peptide P-2, Ile-Pro-Arg-Gly-Asp-Met-Asn-Ala] (H-IPRGDMNA-OH) | 48.8 µM | 27.6 µM | 21.5 µM | 18.9 µM | 1.73 fold | 2.44 fold | 1.27 fold | 1.19 fold
